Source: PMC3157345
These are yes or no findings as the source states them, for the method shown. In cells and extracts the contact can be indirect. Binding calls can cover weak binding; strength is not graded here.

Target: SIRT3-FLAG
Test: co-IP; FLAG-IPs from HEK293T cells transiently expressing FLAG-tagged sirtuins (SIRT1-7 or SIRT3-5), immunoblotted for SDHA, OSCP, FLAG or with antibody cocktails against complex II and OXPHOS subunits

binding | Binder
binds | SDHB subunit of complex II (succinate dehydrogenase) (protein, UniProt P21912 29-280) AQTAAATAPRIKKFAIYRWDPDKAGDKPHMQTYEVDLNKCGPMVLDALIKIKNEVDSTLTFRRSCREGICGSCAMNINGGNTLACTRRIDTNLNKVSKIYPLPHMYVIKDLVPDLSNFYAQYKSIEPYLKKKDESQEGKQQYLQSIEEREKLDGLYECILCACCSTSCPSYWWNGDKYLGPAVLMQAYRWMIDSRDDFTEERLAKLQDPFSLYRCHTIMNCTRTCPKGLNPGKAIAEIKKMMATYKEKKASV
binds | ATP5O/OSCP (protein, UniProt P48047 24-213) FAKLVRPPVQVYGIEGRYATALYSAASKQNKLEQVEKELLRVAQILKEPKVAASVLNPYVKRSIKVKSLNDITAKERFSPLTTNLINLLAENGRLSNTQGVVSAFSTMMSVHRGEVPCTVTSASPLEEATLSELKTVLKSFLSQGQVLKLEAKTDPSILGGMIVRIGEKYVDMSVKTKIQKLGRAMREIV
